Source: the supplement of paper PMC8728848
The list shows a part of the results.

Legend:
Assay in all cases: glycan array binding signal (z-score within array); higher = stronger binding
Details in all cases: glycan notation: IUPAC condensed, linker removed
[1] = molecular target: GalNAc3S(b1-4)[Fuc(a1-3)]GlcNAc
In short: (§1)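 Glycan array data were curated from 3228 arrays in the Consortium for Functional Glycomics database and kept only where the protein sequence was available. Glycan names were converted to IUPAC-condensed notation, and columns mapping to the same glycan were averaged. The binding signal is a within-array Z-score, averaged across arrays of the same protein sequence at different concentrations or buffers and across linkers. Negative Z-scores can be read as non-binding.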

GalNAc4S6S(b1-4)GlcNAc = molecular target: GalNAc4S6S(b1-4)GlcNAc
In short: as §1

GalNAc6S(b1-4)GlcNAc = molecular target: GalNAc6S(b1-4)GlcNAc
In short: as §1

Glc(a1-4)Glc = molecular target: Glc(a1-4)Glc
In short: as §1

[2] = molecular target: Glc(a1-4)Glc(a1-4)Glc(a1-4)Glc
In short: as §1

Glc(a1-6)Glc(a1-6)Glc = molecular target: Glc(a1-6)Glc(a1-6)Glc
In short: as §1

[3] = molecular target: Glc(a1-6)Glc(a1-6)Glc(a1-6)Glc
In short: as §1

Glc(b1-4)Glc = molecular target: Glc(b1-4)Glc
In short: as §1

Glc(b1-6)Glc = molecular target: Glc(b1-6)Glc
In short: as §1

GlcA(b1-3)Gal = molecular target: GlcA(b1-3)Gal
In short: as §1

GlcA(b1-3)GlcNAc = molecular target: GlcA(b1-3)GlcNAc
In short: as §1

GlcA(b1-6)Gal = molecular target: GlcA(b1-6)Gal
In short: as §1

[4] = molecular target: GlcA3S(b1-3)Gal(b1-4)GlcNAc(b1-2)Man
In short: as §1

[5] = molecular target: GlcA3S(b1-3)Gal(b1-4)GlcNAc(b1-3)Gal(b1-4)Glc
In short: as §1

[6] = molecular target: GlcNAc(a1-3)Gal(b1-4)GlcNAc
In short: as §1

[7] = molecular target: GlcNAc(a1-4)Gal(b1-3)GlcNAc
In short: as §1

[8] = molecular target: GlcNAc(a1-4)Gal(b1-4)GalNAc
In short: as §1

[9] = molecular target: GlcNAc(a1-4)Gal(b1-4)GlcNAc
In short: as §1

[10] = molecular target: GlcNAc(a1-4)Gal(b1-4)GlcNAc(b1-3)Gal(b1-4)Glc
In short: as §1

[11] = molecular target: GlcNAc(a1-4)Gal(b1-4)GlcNAc(b1-3)Gal(b1-4)GlcNAc
In short: as §1

[12] = molecular target: GlcNAc(a1-4)Gal(b1-4)GlcNAc(b1-3)Gal(b1-4)GlcNAc(b1-3)Gal(b1-4)GlcNAc
In short: as §1

[13] = molecular target: GlcNAc(a1-4)Gal(b1-4)GlcNAc(b1-3)Gal(b1-4)[Fuc(a1-3)]GlcNAc(b1-3)Gal(b1-4)[Fuc(a1-3)]GlcNAc
In short: as §1

[14] = molecular target: GlcNAc(a1-6)Gal(b1-4)GlcNAc
In short: as §1

[15] = molecular target: GlcNAc(b1-2)Gal(b1-3)GalNAc
In short: as §1

[16] = molecular target: GlcNAc(b1-2)Man(a1-3)[GlcNAc(b1-2)Man(a1-6)]Man(b1-4)GlcNAc(b1-4)GlcNAc
In short: as §1

[17] = molecular target: GlcNAc(b1-2)Man(a1-3)[GlcNAc(b1-2)Man(a1-6)]Man(b1-4)GlcNAc(b1-4)[Fuc(a1-6)]GlcNAc
In short: as §1

[18] = molecular target: GlcNAc(b1-2)Man(a1-3)[GlcNAc(b1-4)][GlcNAc(b1-2)Man(a1-6)]Man(b1-4)GlcNAc(b1-4)GlcNAc
In short: as §1

[19] = molecular target: GlcNAc(b1-2)Man(a1-3)[GlcNAc(b1-4)][GlcNAc(b1-2)Man(a1-6)]Man(b1-4)GlcNAc(b1-4)[Fuc(a1-6)]GlcNAc
In short: as §1

[20] = molecular target: GlcNAc(b1-2)[GlcNAc(b1-4)]Man(a1-3)[GlcNAc(b1-2)Man(a1-6)]Man(b1-4)GlcNAc(b1-4)GlcNAc
In short: as §1

[21] = molecular target: GlcNAc(b1-2)[GlcNAc(b1-4)]Man(a1-3)[GlcNAc(b1-4)][GlcNAc(b1-2)Man(a1-6)]Man(b1-4)GlcNAc(b1-4)GlcNAc
In short: as §1

[22] = molecular target: GlcNAc(b1-2)[GlcNAc(b1-4)]Man(a1-3)[GlcNAc(b1-4)][GlcNAc(b1-2)[GlcNAc(b1-6)]Man(a1-6)]Man(b1-4)GlcNAc(b1-4)GlcNAc
In short: as §1

[23] = molecular target: GlcNAc(b1-2)[GlcNAc(b1-4)]Man(a1-3)[GlcNAc(b1-4)][GlcNAc(b1-2)[GlcNAc(b1-6)]Man(a1-6)]Man(b1-4)GlcNAc(b1-4)[Fuc(a1-6)]GlcNAc
In short: as §1

[24] = molecular target: GlcNAc(b1-2)[GlcNAc(b1-6)]Man(a1-6)[GlcNAc(b1-2)Man(a1-3)]Man(b1-4)GlcNAc(b1-4)GlcNAc
In short: as §1

[25] = molecular target: GlcNAc(b1-2)[GlcNAc(b1-6)]Man(a1-6)[GlcNAc(b1-2)Man(a1-3)]Man(b1-4)GlcNAc(b1-4)[Fuc(a1-6)]GlcNAc
In short: as §1

[26] = molecular target: GlcNAc(b1-2)[GlcNAc(b1-6)]Man(a1-6)[GlcNAc(b1-4)][GlcNAc(b1-2)Man(a1-3)]Man(b1-4)GlcNAc(b1-4)GlcNAc
In short: as §1

GlcNAc(b1-3)Fuc = molecular target: GlcNAc(b1-3)Fuc
In short: as §1

GlcNAc(b1-3)Gal = molecular target: GlcNAc(b1-3)Gal
In short: as §1

[27] = molecular target: GlcNAc(b1-3)Gal(b1-3)GalNAc
In short: as §1

B1: PX9961M-bvu-482-23-482 (Bacteroides vulgatus) (protein)
chain: WLDLAPSTQVDTETSINVLSDIEFTLNGIYSTMQSSDAYSGRLVYYGDVTGDDMQAVSSTKRTGNYYRFNFTKDNGPSSHWSYLYSIIQNCNLILMNVDKLSIDEDETEYKNDLKGQALAIRGMALFDLTRIFGYPYLKDNGASLGVPIVKELSTIDSKPARNTVAECYTEIISDLKNSTELLSGDFNKGKVNRWAAMTLLSRVYLYKGEYNEALTMAENAIKGAEKEGYALWTNEEYPTAWGNDASASNPGEILFEIVNLTTDSPGKESMGYLNSYNGYDDMCITCSFYQLLKKDPKDVRLKILSFDKKYYAYVNKYQPQQGENITDANIPLIRLSEAYLNAAEAAVQTGDNAKAVKYLNSIVQRANPENSVEGKTLTLENVLDERRKELVAEGHRMYDVIRNGMTVKRIDVKDSDINKTKHNTAYMEYDWNFHKILLPIPKKEMDANPNMKQNPGYVD
glycan array binding signal (z-score) [1]: 0.185 | glycan array binding signal (z-score) (GalNAc4S6S(b1-4)GlcNAc): -0.234 | glycan array binding signal (z-score) (GalNAc6S(b1-4)GlcNAc): -0.312 | glycan array binding signal (z-score) (Glc(a1-4)Glc): -0.306 | glycan array binding signal (z-score) [2]: -0.129 | glycan array binding signal (z-score) (Glc(a1-6)Glc(a1-6)Glc): -0.267 | glycan array binding signal (z-score) [3]: -0.604 | glycan array binding signal (z-score) (Glc(b1-4)Glc): -0.796 | glycan array binding signal (z-score) (Glc(b1-6)Glc): 0.451 | glycan array binding signal (z-score) (GlcA(b1-3)Gal): -0.531 | glycan array binding signal (z-score) (GlcA(b1-3)GlcNAc): -0.533 | glycan array binding signal (z-score) (GlcA(b1-6)Gal): -0.315 | glycan array binding signal (z-score) [4]: 0.097 | glycan array binding signal (z-score) [5]: -0.198 | glycan array binding signal (z-score) [6]: -0.238 | glycan array binding signal (z-score) [7]: 0.01 | glycan array binding signal (z-score) [8]: -0.109 | glycan array binding signal (z-score) [9]: -0.43 | glycan array binding signal (z-score) [10]: -0.476 | glycan array binding signal (z-score) [11]: 1.06 | glycan array binding signal (z-score) [12]: -0.106 | glycan array binding signal (z-score) [13]: 1.06 | glycan array binding signal (z-score) [14]: -0.826 | glycan array binding signal (z-score) [15]: -0.274 | glycan array binding signal (z-score) [16]: -0.183 | glycan array binding signal (z-score) [17]: -0.253 | glycan array binding signal (z-score) [18]: -0.065 | glycan array binding signal (z-score) [19]: -0.454 | glycan array binding signal (z-score) [20]: -0.681 | glycan array binding signal (z-score) [21]: -0.235 | glycan array binding signal (z-score) [22]: 0.041 | glycan array binding signal (z-score) [23]: -0.608 | glycan array binding signal (z-score) [24]: 0.029 | glycan array binding signal (z-score) [25]: -0.618 | glycan array binding signal (z-score) [26]: 0.246 | glycan array binding signal (z-score) (GlcNAc(b1-3)Fuc): 0.451 | glycan array binding signal (z-score) (GlcNAc(b1-3)Gal): -0.666 | glycan array binding signal (z-score) [27]: 0.559
